These are yes or no findings as the source states them, for the method shown. Binding seen in cells or lysates may run through a third protein. Some binding calls cover weakened binding; strength is not graded here.
Biological target: Tyrosine kinase interacting protein (Tip) of Herpesvirus saimiri, wild type (Herpesvirus saimiri) (UniProt P22575)
Assay: co-IP; 293T cells co-transfected with Flag-tagged wild type Tip and GFP fusions of Tip or its mutants; immunoprecipitation with anti-Flag, immunoblot with anti-GFP; lysis buffer 150 mM NaCl, 0.5% Nonidet P-40, 50 mM HEPES pH 7.4

B1: Tyrosine kinase interacting protein (Tip) of Herpesvirus saimiri, wild type (protein, UniProt P22575 1-256)
chain: MANEGEEIELTEFPETEKERKDEEKLSSCSEETTNTSSSSGSDHVPVPIEVNVIIQNSSRTEDELQNSKEIELTGFQGKLSSCSEETTAPSSSYSSKQASVFIEENGDNETSTYRPQNVLTNLNSLYTTFEDARAQGKGMVRHKSEDLQSFLEKYPPDFRKPKRDLSATWDPGMPTPPLPPRPANLGERQASTVRLHVKESNCKQPRERKANERNIVKDLKRLENKINVIICLVVVILAVLLLVTVLSILHIGMKS
  binding: binds

Source: PMC2581436, “Role of Amphipathic Helix of a Herpesviral Protein in Membrane Deformation and T Cell Receptor Downregulation” (PLoS Pathogens, 2008)
